± gives the standard deviation of the averaged measurements. This is a selection; strong and weak results do not stand in their true shares.
Compound: Nc1ncnc2c1ncn2[C@@H]1O[C@H](COP(=O)(O)OP(=O)(O)NP(=O)(O)O)[C@@H](O)[C@H]1O [adenylyl imidodiphosphate]
Test: NP40-soluble protein abundance relative to vehicle (solubility fold change) (ratio); higher = more soluble protein in presence of AMP-PNP
In short: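 Crude Jurkat lysate, prepared by Dounce homogenisation, was exposed to eight concentrations from 0.1 to 10 mM for 10 min at room temperature and then 3 min at 37 °C. Solubilisation used 0.8% NP40 with benzonase for 60 min at 4 °C, followed by ultracentrifugation and TMT labelling of the supernatant for LC-MS/MS. After vsn normalisation of intensities, each value is the fold change against the detergent-processed vehicle within each replicate, across three independent experiments.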

Chains of the proteins cited; added tags and fusions are not shown. Lines headed by an entry give the natural chain unless they say otherwise; changes in a name come on top.
UniProt Q9NZJ9: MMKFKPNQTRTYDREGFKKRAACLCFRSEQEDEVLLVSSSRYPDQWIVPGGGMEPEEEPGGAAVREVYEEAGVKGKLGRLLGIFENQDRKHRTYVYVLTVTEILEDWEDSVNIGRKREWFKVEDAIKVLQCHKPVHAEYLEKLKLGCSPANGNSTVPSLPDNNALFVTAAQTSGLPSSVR
UniProt Q9P013: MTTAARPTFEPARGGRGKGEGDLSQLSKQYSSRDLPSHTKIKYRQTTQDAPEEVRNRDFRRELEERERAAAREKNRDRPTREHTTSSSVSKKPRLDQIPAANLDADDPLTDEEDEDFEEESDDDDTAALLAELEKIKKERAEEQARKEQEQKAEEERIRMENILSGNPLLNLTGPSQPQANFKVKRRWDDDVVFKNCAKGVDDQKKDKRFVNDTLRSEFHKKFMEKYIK
UniProt Q9P0B6: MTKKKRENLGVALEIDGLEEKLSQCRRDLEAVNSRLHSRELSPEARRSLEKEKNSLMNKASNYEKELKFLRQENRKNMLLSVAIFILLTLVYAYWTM
UniProt Q9NWU2, whole entry: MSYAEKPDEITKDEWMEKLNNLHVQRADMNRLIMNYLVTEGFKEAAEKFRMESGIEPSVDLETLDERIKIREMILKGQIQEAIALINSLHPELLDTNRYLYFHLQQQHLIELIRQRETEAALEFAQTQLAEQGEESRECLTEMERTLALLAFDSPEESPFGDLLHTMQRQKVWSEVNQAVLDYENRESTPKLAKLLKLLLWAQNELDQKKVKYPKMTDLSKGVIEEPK
UniProt Q9P0L0: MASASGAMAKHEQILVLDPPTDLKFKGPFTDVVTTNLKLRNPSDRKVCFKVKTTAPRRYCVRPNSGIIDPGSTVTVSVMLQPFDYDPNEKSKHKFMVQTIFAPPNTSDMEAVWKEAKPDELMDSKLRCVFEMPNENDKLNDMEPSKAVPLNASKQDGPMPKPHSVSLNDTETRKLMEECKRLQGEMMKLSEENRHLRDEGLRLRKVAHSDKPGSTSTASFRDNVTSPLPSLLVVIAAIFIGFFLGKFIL
UniProt Q9NUQ2: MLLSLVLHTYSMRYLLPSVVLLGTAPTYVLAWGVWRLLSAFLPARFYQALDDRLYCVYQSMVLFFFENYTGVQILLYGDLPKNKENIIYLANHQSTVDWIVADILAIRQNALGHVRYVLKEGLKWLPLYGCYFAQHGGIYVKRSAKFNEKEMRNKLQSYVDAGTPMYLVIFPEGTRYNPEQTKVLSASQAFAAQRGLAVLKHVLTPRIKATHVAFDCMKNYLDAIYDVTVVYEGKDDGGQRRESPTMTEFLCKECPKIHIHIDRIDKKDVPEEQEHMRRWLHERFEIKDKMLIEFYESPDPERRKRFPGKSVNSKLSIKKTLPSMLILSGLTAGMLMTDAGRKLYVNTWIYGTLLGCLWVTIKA
UniProt Q9P107: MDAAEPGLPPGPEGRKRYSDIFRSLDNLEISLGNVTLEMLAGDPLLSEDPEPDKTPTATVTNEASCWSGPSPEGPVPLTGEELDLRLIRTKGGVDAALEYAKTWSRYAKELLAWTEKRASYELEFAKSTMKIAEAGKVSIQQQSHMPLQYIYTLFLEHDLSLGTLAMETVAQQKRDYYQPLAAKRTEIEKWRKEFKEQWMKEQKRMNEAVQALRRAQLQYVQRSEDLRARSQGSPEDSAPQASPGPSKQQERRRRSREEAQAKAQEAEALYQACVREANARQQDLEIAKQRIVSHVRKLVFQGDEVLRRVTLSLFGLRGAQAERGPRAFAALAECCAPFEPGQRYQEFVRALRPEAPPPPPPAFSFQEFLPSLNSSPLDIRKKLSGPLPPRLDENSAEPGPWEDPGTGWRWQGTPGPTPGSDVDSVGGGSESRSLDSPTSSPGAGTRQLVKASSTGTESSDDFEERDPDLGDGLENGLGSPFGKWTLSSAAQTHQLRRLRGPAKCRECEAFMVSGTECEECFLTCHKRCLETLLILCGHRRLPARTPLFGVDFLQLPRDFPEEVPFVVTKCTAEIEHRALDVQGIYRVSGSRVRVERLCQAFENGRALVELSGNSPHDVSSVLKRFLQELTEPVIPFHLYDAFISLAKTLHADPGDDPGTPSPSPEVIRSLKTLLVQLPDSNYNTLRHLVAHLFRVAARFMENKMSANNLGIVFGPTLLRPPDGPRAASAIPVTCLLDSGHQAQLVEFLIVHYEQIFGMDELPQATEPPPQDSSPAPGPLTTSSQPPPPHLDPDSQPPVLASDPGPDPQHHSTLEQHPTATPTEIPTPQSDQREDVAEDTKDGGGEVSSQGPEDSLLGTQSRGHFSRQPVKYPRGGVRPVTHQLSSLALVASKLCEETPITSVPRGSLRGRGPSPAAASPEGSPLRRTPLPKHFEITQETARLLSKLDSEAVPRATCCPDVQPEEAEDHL
UniProt Q9P035: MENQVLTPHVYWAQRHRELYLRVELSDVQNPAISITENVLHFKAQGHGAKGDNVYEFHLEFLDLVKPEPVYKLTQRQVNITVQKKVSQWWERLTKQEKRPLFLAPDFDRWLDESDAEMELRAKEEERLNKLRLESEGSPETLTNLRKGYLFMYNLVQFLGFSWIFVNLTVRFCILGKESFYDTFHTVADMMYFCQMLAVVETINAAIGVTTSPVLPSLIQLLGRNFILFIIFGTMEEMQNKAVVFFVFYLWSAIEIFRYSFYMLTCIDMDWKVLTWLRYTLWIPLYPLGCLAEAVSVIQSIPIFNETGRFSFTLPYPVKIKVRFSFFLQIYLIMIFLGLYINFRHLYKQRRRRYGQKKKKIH
UniProt Q9NWX6: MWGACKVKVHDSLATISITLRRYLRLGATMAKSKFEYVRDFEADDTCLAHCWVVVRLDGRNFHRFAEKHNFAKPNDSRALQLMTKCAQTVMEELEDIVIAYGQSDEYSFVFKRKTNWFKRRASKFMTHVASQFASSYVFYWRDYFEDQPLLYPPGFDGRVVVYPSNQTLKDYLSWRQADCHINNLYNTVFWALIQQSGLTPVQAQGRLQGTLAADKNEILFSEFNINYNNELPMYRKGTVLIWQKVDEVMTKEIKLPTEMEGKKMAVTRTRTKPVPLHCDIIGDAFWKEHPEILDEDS
UniProt Q9NV56, whole entry: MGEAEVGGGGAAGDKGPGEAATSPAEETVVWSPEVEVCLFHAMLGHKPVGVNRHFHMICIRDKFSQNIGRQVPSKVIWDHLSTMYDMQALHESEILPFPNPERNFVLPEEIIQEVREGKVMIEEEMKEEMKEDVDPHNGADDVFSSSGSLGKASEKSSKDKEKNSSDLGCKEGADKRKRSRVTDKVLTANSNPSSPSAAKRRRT
UniProt Q9P0U3: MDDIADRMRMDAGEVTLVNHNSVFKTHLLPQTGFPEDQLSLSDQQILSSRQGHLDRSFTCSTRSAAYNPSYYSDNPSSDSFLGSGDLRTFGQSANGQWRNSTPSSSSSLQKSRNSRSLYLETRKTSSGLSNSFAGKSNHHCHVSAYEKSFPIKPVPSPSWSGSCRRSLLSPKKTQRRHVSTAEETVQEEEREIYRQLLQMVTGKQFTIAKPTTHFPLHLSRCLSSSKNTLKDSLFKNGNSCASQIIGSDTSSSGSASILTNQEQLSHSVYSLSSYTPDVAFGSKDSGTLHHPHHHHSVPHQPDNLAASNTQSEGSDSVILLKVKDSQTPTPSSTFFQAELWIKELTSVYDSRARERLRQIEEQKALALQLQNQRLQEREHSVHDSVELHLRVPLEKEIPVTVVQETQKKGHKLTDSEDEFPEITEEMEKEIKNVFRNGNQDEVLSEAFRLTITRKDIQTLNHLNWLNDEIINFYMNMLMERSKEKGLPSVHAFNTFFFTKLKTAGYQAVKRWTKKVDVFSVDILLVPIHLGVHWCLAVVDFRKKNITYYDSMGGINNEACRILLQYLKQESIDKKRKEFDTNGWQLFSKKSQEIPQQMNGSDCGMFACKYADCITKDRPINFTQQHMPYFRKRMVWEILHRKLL
UniProt Q9NVX0: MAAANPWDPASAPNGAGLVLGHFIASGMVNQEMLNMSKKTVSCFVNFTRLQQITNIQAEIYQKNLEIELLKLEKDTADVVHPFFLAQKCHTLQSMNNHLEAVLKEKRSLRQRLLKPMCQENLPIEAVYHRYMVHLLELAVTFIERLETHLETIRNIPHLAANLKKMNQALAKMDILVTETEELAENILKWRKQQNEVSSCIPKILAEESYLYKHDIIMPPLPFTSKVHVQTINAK
UniProt Q9UBH6: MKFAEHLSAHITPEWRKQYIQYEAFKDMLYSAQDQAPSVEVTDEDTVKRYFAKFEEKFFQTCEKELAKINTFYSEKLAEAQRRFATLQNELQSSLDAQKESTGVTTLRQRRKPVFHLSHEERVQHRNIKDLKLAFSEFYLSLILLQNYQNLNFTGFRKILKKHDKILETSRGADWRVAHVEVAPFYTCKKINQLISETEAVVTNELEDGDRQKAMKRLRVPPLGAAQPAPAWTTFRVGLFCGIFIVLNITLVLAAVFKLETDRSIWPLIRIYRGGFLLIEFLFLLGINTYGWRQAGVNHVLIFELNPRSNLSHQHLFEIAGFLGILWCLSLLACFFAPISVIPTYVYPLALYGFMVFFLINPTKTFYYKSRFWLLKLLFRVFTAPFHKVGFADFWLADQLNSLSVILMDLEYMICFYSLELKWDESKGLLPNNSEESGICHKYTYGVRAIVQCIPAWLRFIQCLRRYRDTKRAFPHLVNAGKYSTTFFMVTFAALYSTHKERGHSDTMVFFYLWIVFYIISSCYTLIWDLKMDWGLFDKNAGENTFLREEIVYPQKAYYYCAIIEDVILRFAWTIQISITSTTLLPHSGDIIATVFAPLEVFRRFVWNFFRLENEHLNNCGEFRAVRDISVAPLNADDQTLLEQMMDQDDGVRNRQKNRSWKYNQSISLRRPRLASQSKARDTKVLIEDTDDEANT
UniProt Q9NRG0: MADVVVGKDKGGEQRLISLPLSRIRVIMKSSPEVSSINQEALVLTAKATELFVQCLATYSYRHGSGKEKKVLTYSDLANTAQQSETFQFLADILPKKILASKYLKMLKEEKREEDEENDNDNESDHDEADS
UniProt Q9NZD8: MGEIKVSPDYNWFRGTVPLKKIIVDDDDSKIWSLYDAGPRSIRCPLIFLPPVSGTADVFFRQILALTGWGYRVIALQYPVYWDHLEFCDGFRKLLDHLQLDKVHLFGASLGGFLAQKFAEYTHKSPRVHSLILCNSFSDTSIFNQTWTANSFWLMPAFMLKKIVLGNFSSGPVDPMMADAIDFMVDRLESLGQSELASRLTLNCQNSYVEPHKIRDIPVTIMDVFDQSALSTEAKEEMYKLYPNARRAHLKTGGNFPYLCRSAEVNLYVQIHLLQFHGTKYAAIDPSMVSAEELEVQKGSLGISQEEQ
UniProt Q9NRW4: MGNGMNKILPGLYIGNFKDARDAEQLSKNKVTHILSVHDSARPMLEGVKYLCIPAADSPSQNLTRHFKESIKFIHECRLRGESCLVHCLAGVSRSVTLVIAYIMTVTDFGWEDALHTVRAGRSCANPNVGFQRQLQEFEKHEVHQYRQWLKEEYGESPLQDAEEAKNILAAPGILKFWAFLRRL
UniProt Q9NUW8, whole entry: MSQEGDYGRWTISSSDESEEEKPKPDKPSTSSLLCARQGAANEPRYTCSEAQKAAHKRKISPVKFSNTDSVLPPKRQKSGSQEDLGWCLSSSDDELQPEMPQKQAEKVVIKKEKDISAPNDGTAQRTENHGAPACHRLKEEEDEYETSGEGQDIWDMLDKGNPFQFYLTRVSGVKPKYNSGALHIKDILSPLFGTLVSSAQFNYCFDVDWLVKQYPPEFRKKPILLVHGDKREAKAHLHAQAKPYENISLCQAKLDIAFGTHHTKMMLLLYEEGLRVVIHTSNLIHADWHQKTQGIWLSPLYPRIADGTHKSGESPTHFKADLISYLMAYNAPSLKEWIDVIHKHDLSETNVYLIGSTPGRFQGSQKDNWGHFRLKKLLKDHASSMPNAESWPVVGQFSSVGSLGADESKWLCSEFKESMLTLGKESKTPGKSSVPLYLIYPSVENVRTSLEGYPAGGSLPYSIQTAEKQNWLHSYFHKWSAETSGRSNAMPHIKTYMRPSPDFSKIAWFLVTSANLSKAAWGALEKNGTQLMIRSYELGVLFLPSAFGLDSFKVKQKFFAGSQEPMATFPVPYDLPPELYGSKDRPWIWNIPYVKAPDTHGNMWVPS
UniProt Q9NQS1: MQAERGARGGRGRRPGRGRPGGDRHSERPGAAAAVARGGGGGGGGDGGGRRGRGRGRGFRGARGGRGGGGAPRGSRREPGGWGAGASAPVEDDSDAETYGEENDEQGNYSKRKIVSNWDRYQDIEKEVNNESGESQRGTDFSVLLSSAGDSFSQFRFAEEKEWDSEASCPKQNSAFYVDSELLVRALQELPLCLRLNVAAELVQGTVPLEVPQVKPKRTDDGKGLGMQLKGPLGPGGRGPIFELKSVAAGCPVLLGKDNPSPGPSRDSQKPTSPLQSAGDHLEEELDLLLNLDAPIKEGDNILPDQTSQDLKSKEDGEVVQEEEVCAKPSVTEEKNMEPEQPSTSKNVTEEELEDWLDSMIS
UniProt Q9P1F3: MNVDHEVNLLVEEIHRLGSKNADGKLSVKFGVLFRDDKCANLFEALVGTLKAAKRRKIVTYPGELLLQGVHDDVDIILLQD
UniProt Q9NQP4, whole entry: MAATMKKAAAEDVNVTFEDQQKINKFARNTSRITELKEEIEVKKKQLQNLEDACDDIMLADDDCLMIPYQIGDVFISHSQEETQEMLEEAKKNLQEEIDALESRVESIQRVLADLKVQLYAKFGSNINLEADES

Target	NP40-soluble protein abundance (concentration: 1mM)	NP40-soluble protein abundance (concentration: 2mM)	NP40-soluble protein abundance (concentration: 4mM)	NP40-soluble protein abundance (concentration: 6mM)	NP40-soluble protein abundance (concentration: 8mM)	NP40-soluble protein abundance (concentration: 10mM)
UniProt Q9NZJ9 and related entries	0.983 ± 0.056	0.954 ± 0.075	1.01 ± 0.056	1.06 ± 0.088	1.09 ± 0.079	1.07 ± 0.065
UniProt Q9NV70 and related entries	0.974 ± 0.013	0.963 ± 0.014	0.967 ± 0.022	0.9512 ± 0.0053	0.941 ± 0.018	0.969 ± 0.024
UniProt Q9NZ08 and related entries	0.976 ± 0.05	0.9575 ± 0.0043	1 ± 0.048	1.06 ± 0.084	1.08 ± 0.064	1.07 ± 0.047
CWC15 (UniProt Q9P013)	1.04 ± 0.037	1.12 ± 0.079	1.037 ± 0.0085	1.07 ± 0.034	1.06 ± 0.04	1.09 ± 0.021
PDRG1 (UniProt Q9NUG6)	0.995 ± 0.025	0.998 ± 0.039	0.968 ± 0.0092	0.915 ± 0.016	0.904 ± 0.027	0.8644 ± 0.0075
UniProt Q9P0B6	1.03 ± 0.042	1.09 ± 0.058	1.01 ± 0.053	0.983 ± 0.063	0.999 ± 0.041	0.977 ± 0.099
UniProt Q9NTX5 and related entries	0.9542 ± 0.0058	0.953 ± 0.042	0.976 ± 0.012	0.951 ± 0.036	0.939 ± 0.031	0.95 ± 0.04
UniProt Q9NUP1	1.01 ± 0.054	1.03 ± 0.054	1.02 ± 0.029	1.01 ± 0.024	0.999 ± 0.026	0.998 ± 0.033
UniProt Q9NWU2	0.96 ± 0.045	0.999 ± 0.04	0.964 ± 0.052	0.892 ± 0.015	0.884 ± 0.0097	0.868 ± 0.036
UniProt Q9P0L0 and related entries	1.05 ± 0.015	1.09 ± 0.056	1.03 ± 0.045	1 ± 0.025	0.993 ± 0.034	1.01 ± 0.055
PDLIM7 (UniProt Q9NR12)	0.989 ± 0.035	0.997 ± 0.032	0.995 ± 0.01	0.994 ± 0.03	0.971 ± 0.019	0.986 ± 0.038
GDE1 (UniProt Q9NZC3)	1.01 ± 0.043	1.02 ± 0.034	1.01 ± 0.03	1.01 ± 0.08	0.995 ± 0.05	1.01 ± 0.06
AGPAT5 (UniProt Q9NUQ2)	0.992 ± 0.051	0.936 ± 0.094	1 ± 0.078	0.949 ± 0.061	0.961 ± 0.057	0.965 ± 0.054
UniProt Q9P107 and related entries	1.02 ± 0.019	1.09 ± 0.11	1.04 ± 0.025	0.999 ± 0.022	0.965 ± 0.018	0.996 ± 0.035
UniProt Q9NZM5	1 ± 0.027	1.05 ± 0.047	1.05 ± 0.038	1.03 ± 0.05	1.04 ± 0.02	1.09 ± 0.044
UniProt Q9P035 and related entries	0.913 ± 0.038	0.855 ± 0.082	0.9571 ± 0.0078	1.01 ± 0.087	1.03 ± 0.071	1.03 ± 0.03
UniProt Q9NZQ3 and related entries	1.04 ± 0.066	0.9853 ± 0.0064	1.03 ± 0.045	0.984 ± 0.029	1.02 ± 0.047	0.99 ± 0.014
THG1L (UniProt Q9NWX6)	1 ± 0.025	0.991 ± 0.033	1 ± 0.048	0.9818 ± 0.0056	0.9903 ± 0.0031	0.993 ± 0.021
PAG1 (UniProt Q9NWQ8)	1.04 ± 0.035	1.08 ± 0.043	1.05 ± 0.054	1.01 ± 0.049	1 ± 0.018	1.01 ± 0.05
UniProt Q9NUT2 and related entries	0.986 ± 0.026	0.932 ± 0.05	0.9832 ± 0.004	0.9535 ± 0.0073	0.946 ± 0.032	0.935 ± 0.062
UniProt Q9NQG7 and related entries	1.04 ± 0.058	1.06 ± 0.088	1.05 ± 0.048	1.02 ± 0.011	1.03 ± 0.097	1.02 ± 0.06
CCDC59 (UniProt Q9P031)	0.972 ± 0.04	0.9869 ± 0.0081	0.972 ± 0.026	0.984 ± 0.022	0.994 ± 0.031	0.984 ± 0.025

Already shown: an excerpt of the list.
Target	NP40-soluble protein abundance (concentration: 1mM)	NP40-soluble protein abundance (concentration: 2mM)	NP40-soluble protein abundance (concentration: 4mM)	NP40-soluble protein abundance (concentration: 6mM)	NP40-soluble protein abundance (concentration: 8mM)	NP40-soluble protein abundance (concentration: 10mM)
UniProt Q9P107 and related entries	1.02 ± 0.019	1.09 ± 0.11	1.04 ± 0.025	0.999 ± 0.022	0.965 ± 0.018	0.996 ± 0.035
UniProt Q9NZM5	1 ± 0.027	1.05 ± 0.047	1.05 ± 0.038	1.03 ± 0.05	1.04 ± 0.02	1.09 ± 0.044

(listing goes on)

Target	NP40-soluble protein abundance (concentration: 1mM)	NP40-soluble protein abundance (concentration: 2mM)	NP40-soluble protein abundance (concentration: 4mM)	NP40-soluble protein abundance (concentration: 6mM)	NP40-soluble protein abundance (concentration: 8mM)	NP40-soluble protein abundance (concentration: 10mM)
LYAR (UniProt Q9NX58)	1.04 ± 0.049	1.13 ± 0.054	1.07 ± 0.097	1.12 ± 0.093	1.1 ± 0.073	1.18 ± 0.14
UniProt Q9NV56	1.02 ± 0.062	1.07 ± 0.05	1.01 ± 0.092	1.04 ± 0.085	1.02 ± 0.11	1.06 ± 0.13
RPRD1B (UniProt Q9NQG5)	0.998 ± 0.055	1.08 ± 0.039	1.03 ± 0.087	0.95 ± 0.04	0.984 ± 0.034	0.86 ± 0.1
UniProt Q9P0U3 and related entries	0.961 ± 0.031	0.895 ± 0.024	0.905 ± 0.018	1.03 ± 0.097	1.03 ± 0.027	0.961 ± 0.041
UniProt Q9NQ29 and related entries	1.02 ± 0.04	1.13 ± 0.12	1.11 ± 0.055	1.15 ± 0.027	1.15 ± 0.091	1.35 ± 0.098
UniProt Q9NVX0 and related entries	1.03 ± 0.047	0.998 ± 0.02	1.02 ± 0.039	0.978 ± 0.062	0.987 ± 0.045	0.982 ± 0.049
UBQLN4 (UniProt Q9NRR5)	0.998 ± 0.013	1.04 ± 0.04	1.05 ± 0.019	0.9778 ± 0.0081	0.953 ± 0.012	0.959 ± 0.057
UniProt Q9NW15 and related entries	0.992 ± 0.031	1.01 ± 0.037	1.01 ± 0.023	0.975 ± 0.035	1.02 ± 0.08	0.969 ± 0.047
UniProt Q9UBH6 and related entries	1.041 ± 0.0096	1.01 ± 0.025	1.031 ± 0.0021	1.03 ± 0.012	1.02 ± 0.012	1.02 ± 0.037
UniProt Q9NRG0 and related entries	1.001 ± 0.0097	0.967 ± 0.036	0.9734 ± 0.0074	0.9919 ± 0.0028	0.95945 ± 0.00013	0.945 ± 0.014
UniProt Q9NWF9 and related entries	0.977 ± 0.016	1.01 ± 0.029	0.987 ± 0.032	0.95 ± 0.03	0.973 ± 0.038	0.972 ± 0.035
UniProt Q9NRP2 and related entries	1.01 ± 0.021	1.09 ± 0.18	0.978 ± 0.032	0.97 ± 0.046	0.91 ± 0.04	0.939 ± 0.038
UniProt Q9NZD8 and related entries	1.02 ± 0.021	0.995 ± 0.041	1.02 ± 0.021	0.988 ± 0.018	0.989 ± 0.053	0.991 ± 0.047
UniProt Q9NRW4 and related entries	0.99 ± 0.026	0.9982 ± 0.0082	0.987 ± 0.022	0.96839 ± 0.00031	0.969 ± 0.031	0.9568 ± 0.0011
TDP1 (UniProt Q9NUW8)	1.03 ± 0.015	1.02 ± 0.019	1.01 ± 0.018	0.996 ± 0.015	1 ± 0.031	0.987 ± 0.032
UniProt Q9P2N6-3|Q9P2N6	1.02 ± 0.051	1.07 ± 0.021	1.06 ± 0.018	1.055 ± 0.0081	1.03 ± 0.029	1.09 ± 0.026
AVEN (UniProt Q9NQS1)	0.961 ± 0.061	1.02 ± 0.041	0.938 ± 0.078	0.916 ± 0.03	0.921 ± 0.039	0.959 ± 0.035
NSMCE4A (UniProt Q9NXX6)	0.993 ± 0.068	0.945 ± 0.067	0.967 ± 0.056	0.933 ± 0.017	0.96 ± 0.026	0.941 ± 0.09
UniProt Q9P1F3	0.954 ± 0.025	1.03 ± 0.093	0.978 ± 0.025	0.975 ± 0.032	1.01 ± 0.014	0.983 ± 0.062
PFDN4 (UniProt Q9NQP4)	1.01 ± 0.024	1.01 ± 0.029	0.98 ± 0.023	0.924 ± 0.065	0.893 ± 0.043	0.911 ± 0.049
CISD1 (UniProt Q9NZ45)	1 ± 0.047	1.04 ± 0.046	1 ± 0.04	0.992 ± 0.039	1.02 ± 0.0018	0.968 ± 0.051

Source: the supplement of paper PMC6411743
